Structures are written as SMILES.

One series is described as follows: Evaluation of dyeing (dye transferred via automatic processor roller to photographic paper). The arrangement: key: grade 5 means best, i.e., the generation of dyeing was least; grade 1 means worst, i.e., the generation of dyeing was most. The following applies: dye added as methanol solution; five grades. As for the experimental part: Dyeing is a failure that when a photographic paper is processed after processing a photographic film, the dye transferred to the transporting roller of the automatic processor from the film adheres to the photographic paper.
The above-obtained sample of a large size (50.8 cm×61 cm) was processed using automatic processor FG9601S (produced by Fuji Photo Film Co., Ltd.) filled with developing solution ND-1 (mother solution/water: 2/1, 35° C., 30 seconds), fixing solution NF-1 (mother solution/water: 1/2, 34° C.), and washing water (25° C.). Three large size sheets were processed with the interval of 1 minute with replenishing 50 ml of the working solution per one sheet, and 10 minutes after that, three large size sheets of scanner paper PR-H100WP (manufactured by Fuji Photo Film Co., Ltd.) were processed with the interval of 1 minute. This procedure was repeated three times and dyeing of the entire surface of the emulsion layer side and the back side and the end part of the processed sheet was compared and confirmed.
Dyeing of the obtained samples was evaluated by five grade (grade 5 means best, i.e., the generation of dyeing was least, and grade 1 means worst, i.e., the generation of dyeing was most).
On to `CCN(CC)CC.CCN(CC)CC.O=C(O)CN1C(=O)C(=C2Oc3ccc(Cl)cc3N2CCCCS(=O)(=O)O)SC1=S` [Dye (1)], for which the Dyeing amounted to 5.
The compound `CCN(CC)CC.CCN(CC)CC.Cc1cc2c(cc1C)N(CCCS(=O)(=O)O)C(=CC=C1SC(=S)N(CC(=O)O)C1=O)S2` [Dye (6)] came in with a Dyeing of 5.
Still for that read-out and setting: the value for `CC(=CC=C1Oc2ccccc2N1CCS(=O)(=O)O)C=C1SC(=S)N(CC(=O)O)C1=O.CCN(CC)CC.CCN(CC)CC` [Dye (12)] was 5.
Same read-out and setting: the result for `O=C([O-])CN1C(=O)C(=C2Oc3ccc(Cl)cc3N2CCCCS(=O)(=O)[O-])SC1=S.[K+].[K+]` [SS-1, reference compound] reads 1.
The same measure, in the same setting: the value for `CC(=CC=C1Sc2cc(C)ccc2N1CCCCS(=O)(=O)[O-])C=C1SC(=S)N(CC(=O)[O-])C1=O.[Na+].[Na+]` [SS-4, reference compound] was 1.
As to `CC(=CC=C1Oc2ccccc2N1CCS(=O)(=O)[O-])C=C1SC(=S)N(CC(=O)[O-])C1=O.[Na+].[Na+]` [SS-5, reference compound], the Dyeing stood at 1.
The same measure, in the same setting: the result for `COc1cc2sc(C=c3sc(=CC=C4SC=C(C)N4CCCCS(=O)(=O)[O-])c(=O)n3CC(=O)[O-])[n+](CCCCS(=O)(=O)[O-])c2cc1OC.[Na+].[Na+]` [SS-7, reference compound] reads 1.

Staying with this series, now noted: dye added as water solution; five grades.
`O=C([O-])CN1C(=O)C(=C2Oc3ccc(Cl)cc3N2CCCCS(=O)(=O)[O-])SC1=S.[K+].[K+]` [SS-1, reference compound] returned a Dyeing of 1.
